# This is one part of the list.
# Compound: CC1Cc2ccccc2N1C(=O)C1CCCN(C1)C(=O)CCl (mixture of isomers) [TRIM25 ligand 11 (diastereomer mixture)]
# Experiment: probe-labelled cysteine peptide fold change vs DMSO (competition) (log2 fold change); higher = less target engagement (more negative = stronger competition)
# Conditions: THP-1, incubation time: 4 h
# 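Further: competitive chemoproteomic profiling in live THP-1 cells with an iodoacetamide desthiobiotin (IA-DTB) probe, comparing probe-labelled peptide intensities in compound-treated cells against DMSO-treated controls.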
Target,probe-labelled cysteine peptide fold change (10 µM),probe-labelled cysteine peptide fold change (50 µM)
CXXC1_Q9P0U4_169+172+175_MCGECEACR (UniProt Q9P0U4),-0.186,-0.119
DARS2_Q6PI48_590_LICLVTGSPSIRDVIAFPK (UniProt Q6PI48),-0.393,0.0388
CTSL_P07711_322_NHCGIASAASYPTV (UniProt P07711),-0.124,-0.205
DBNL_Q9UJU6_97_GACASHVSTMASFLK (UniProt Q9UJU6),0.0766,-0.34
DCTN1_Q14203_1252_VTFSCAAGFGQR (UniProt Q14203),0.122,-0.00591
CUL9_Q8IWT3_176_ETGALDLLMHMLCNPEPQIR (UniProt Q8IWT3),0.0269,-0.195
DCAF6_Q58WW2_766_HTAEHLMLLEADNHVVNCLQPHPFDPILASSGIDYDIK (UniProt Q58WW2),0.119,-0.141
DCAF4_Q8WV16_88_LLPGHNNCNPLTK (UniProt Q8WV16),-0.0395,0.0033
CUX1_P39880-9_375_CAELQVR (UniProt P39880),0.164,0.049
CUL4A_Q13619_241_FLEETNCLYAAEGQR (UniProt Q13619),0.0925,-0.059
CYLD_Q9NQC7_934_RIQGCAR (UniProt Q9NQC7),-0.0179,-0.0778
CTSS_P25774_320_GNHCGIASFPSYPEI (UniProt P25774),0.013,0.223
CTPS1_P17812_216_GLGLSPDLVVCR (UniProt P17812),0.0351,0.13
CTTNBP2NL_Q9P2B4_186_QLSSMLVLECK (UniProt Q9P2B4),0.245,-0.0899
CWF19L1_Q69YN2_141_MMLCTTSQFK (UniProt Q69YN2),0.0593,0.0957
DAXX_Q9UER7_338_HLDLIYNFGCHLTDDYRPGVDPALSDPVLAR (UniProt Q9UER7),0.0212,-0.0317
DBR1_Q9UK59_371_INPQTTEFCAQLGIIDINVR (UniProt Q9UK59),-0.241,-0.277
CUL3_Q13618_316_TMCECMSSYLR (UniProt Q13618),-0.0178,0.135
DBR1_Q9UK59_139_GHFECPPYNSSTIR (UniProt Q9UK59),0.0164,0.188

Target,probe-labelled cysteine peptide fold change (10 µM),probe-labelled cysteine peptide fold change (50 µM)
CXXC1_Q9P0U4_181+187_RTEDCGHCDFCR (UniProt Q9P0U4),-0.146,-0.188
CXXC1_Q9P0U4_181+187_TEDCGHCDFCR (UniProt Q9P0U4),-0.0772,-0.0846
CWC22_Q9HCG8_253_QLCLTASK (UniProt Q9HCG8),-0.105,-0.0661
CUL3_Q13618_298_TEDLGCMYK (UniProt Q13618),0.0181,-0.0783
DBR1_Q9UK59_37_RGPGPVDLLLCCGDFQAVR (UniProt Q9UK59),0.1,-0.0176
DCAF6_Q58WW2_513_GIGSHCK (UniProt Q58WW2),0.0159,-0.114
CTPS1_P17812_299_LLETCSIALVGK (UniProt P17812),0.00504,0.0867
DARS2_Q6PI48_459_LRLECADLLETR (UniProt Q6PI48),-0.0104,-0.00375
CUL1_Q13616_496_QACGFEYTSK (UniProt Q13616),-0.0802,-0.0347
CUL2_Q13617_103_GADYMDCLYR (UniProt Q13617),0.191,0.129
DCPS_Q96C86_307_AHLLAEVIENLECDPR (UniProt Q96C86),0.149,-0.0437
DBR1_Q9UK59_347_VPCNFSVTAACYDPSKPQTQMQLIHR (UniProt Q9UK59),-0.209,-0.211
CXorf38_Q8TB03_103_NGDVHWGNCRPGR (UniProt Q8TB03),0.0637,0.181
CUTA_O60888_96_LAACVNLIPQITSIYEWK (UniProt O60888),-0.315,-0.34
DBR1_Q9UK59_8+9_VAVAGCCHGELDK (UniProt Q9UK59),-0.0439,-0.172
CTSV_O60911_211_ENGGLDSEESYPYVAVDEICK (UniProt O60911),-0.148,-0.291
CTR9_Q6PD62_207_LGMGHCFVK (UniProt Q6PD62),-0.0454,-0.024
CUL1_Q13616_149_RECDEGR (UniProt Q13616),-0.00634,0.0611

# Reprinted at random: three entries already listed, in no set order.
Target,probe-labelled cysteine peptide fold change (10 µM),probe-labelled cysteine peptide fold change (50 µM)
CXXC1_Q9P0U4_181+187_TEDCGHCDFCR (UniProt Q9P0U4),-0.0772,-0.0846
CUL4A_Q13619_241_FLEETNCLYAAEGQR (UniProt Q13619),0.0925,-0.059
CUX1_P39880-9_375_CAELQVR (UniProt P39880),0.164,0.049
